Measurements from US20260159519A1, “IMIDAZOPYRIDAZINE SUBSTITUTED BENZENE RING DERIVATIVE, PREPARATION METHOD, PHARMACEUTICAL COMPOSITION AND USE” (SHANGHAI SIMR BIOTECHNOLOGY CO., LTD., priority 2022, published 2026).
The match of structure and compound is tentative.

Experiments:
[1] = target: human α2-GABAA receptor (BZD site, membrane protein of HEK293 cells) (Homo sapiens, UniProt P18507+P47869); assay: Radioligand competitive binding assay (3H-flunitrazepam) at the BZD site of the α2-GABAA receptor; conditions: read-out: α2 Ki; competition with 1 nM 3H-flunitrazepam; Ki calculated from IC50
[2] = tested on: Chinese hamster ovary cells (CHO-WBL cells); assay: In vitro micronucleus assay; type: cell-based; conditions: 3-hour treatment with S9, 3-hour and 24-hour treatment without S9; overall judgment

Compound	Ki [1]	Results of in vitro micronucleus assay [2]
COc1c(-c2cc(-c3cnnc4c3ncn4C(C)C)ccc2F)ccc2c1nnn2C	3.09 nM	Negative
CCn1cnc2c(-c3ccc(F)c(-c4cc5oc(=O)n(CC)c5cc4OC)c3)cnnc21	3.95 nM	Negative
